Experimental data taken from patent US20170260583.
Numbering of substitutions follows the chain as printed. The exact form of at least one protein or probe is not confirmed. Tags and fusion partners may be left off the protein sequences shown.

Legend:
Assay in all cases: enzyme reaction in vitro
[1] = target: T1, RNase H2 G169A (Pyrococcus abyssi) (UniProt Q9V1A9); details: 3' C3 spacer, rhPCR, 10 mU column, purified recombinant protein, protein details: 6xHis
T1 sequence: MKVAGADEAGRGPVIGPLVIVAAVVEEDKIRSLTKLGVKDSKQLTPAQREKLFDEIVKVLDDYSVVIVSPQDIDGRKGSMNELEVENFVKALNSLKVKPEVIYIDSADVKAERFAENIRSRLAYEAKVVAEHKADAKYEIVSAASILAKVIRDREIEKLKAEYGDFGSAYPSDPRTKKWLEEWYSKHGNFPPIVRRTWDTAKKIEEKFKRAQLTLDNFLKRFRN

[2] = target: T2, RNase H2 P13T (Pyrococcus abyssi) (UniProt Q9V1A9); details: 3' C3 spacer, rhPCR, 10 mU column, purified recombinant protein, protein details: 6xHis
T2 sequence: T1 sequence with P13T, A169G

[3] = target: T3, RNase H2 WT (Pyrococcus abyssi) (UniProt Q9V1A9); details: 3' C3 spacer, rhPCR, 10 mU column, purified recombinant protein
T3 sequence: T1 sequence with A169G

[4] = target: T4, RNase H2 G12A (Pyrococcus abyssi) (UniProt Q9V1A9); details: 3' C3 spacer, rhPCR, 10 mU column, purified recombinant protein, protein details: 6xHis
T4 sequence: T1 sequence with G12A, A169G

GTGATTTTGGTCTAGCTACAGAAAAA [rs113488022 rGA 4dmx rhPrimer]
activity on this sequence ([1]; single RNA residue rG, T 43.2, A 26.4, WT 14.2, text cites SEQ 206/207 but table labels rGA): 16.8 delta Cq | activity on this sequence ([2]; single RNA residue rG, T 42.0, A 27.0): 15 delta Cq | activity on this sequence ([3]; single RNA residue rG, T 33.3, A 26.0, SEQ 211 printed identical to 210, protein details: …): 7.3 delta Cq | activity on this sequence ([4]; single RNA residue rG, T 75.6, A 48.2): 27.4 delta Cq

GTGATTTTGGTCTAGCTACAGTAAAA [rs113488022 rGT 4dmx rhPrimer]
activity on this sequence ([1]; single RNA residue rG (GTGATTTTGGTCTAGCTACArGTAAAA-x), T 29.2, A 39.3, WT 0.0, text cites SEQ 206/207 but table labels rGT): 10.1 delta Cq | activity on this sequence ([2]; single RNA residue rG (GTGATTTTGGTCTAGCTACArGTAAAA-x), T 31.7, A 37.3): 5.6 delta Cq | activity on this sequence ([3]; single RNA residue rG (GTGATTTTGGTCTAGCTACArGTAAAA-x), T 26.4, A 26.5, mismatch 3' of RNA, protein details: 6xHis): 0.2 delta Cq | activity on this sequence ([4]; single RNA residue rG (GTGATTTTGGTCTAGCTACArGTAAAA-x), T 55.7, A 66.8): 11.1 delta Cq
